Experimental data taken from publication doi:10.1101/636324.
No constants are given. Whether binding was seen depends on the method and setting. In cells and extracts the contact can be indirect. A yes stands for co-enrichment or nearness to the bait. Other partners may have been found. Where a sequence is shown, tags or fusion partners need not be part of it.

T1: BIN2-YFP-TbID (Arabidopsis) (UniProt Q39011)
T1 sequence: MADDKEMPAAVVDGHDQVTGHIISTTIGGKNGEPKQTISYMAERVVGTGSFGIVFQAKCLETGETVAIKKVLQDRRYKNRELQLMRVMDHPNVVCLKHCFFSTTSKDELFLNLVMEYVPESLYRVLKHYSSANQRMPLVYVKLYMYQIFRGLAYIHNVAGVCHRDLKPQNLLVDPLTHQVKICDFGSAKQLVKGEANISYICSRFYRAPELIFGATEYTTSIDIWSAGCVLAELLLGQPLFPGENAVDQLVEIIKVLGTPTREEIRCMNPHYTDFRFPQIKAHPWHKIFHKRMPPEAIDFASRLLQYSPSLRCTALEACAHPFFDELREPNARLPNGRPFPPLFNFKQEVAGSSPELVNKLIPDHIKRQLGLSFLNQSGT

B1: BSL3 (protein, UniProt Q9SHS7 1-1006)
chain: MDLDSSMVPENDQDPIATSENQSPMEEKEEASEQQTGSESESASLTPSLPPPSQQQQQQQQQPQVTAVVGPRCAPTYSVVNAIIEKKEDGPGPRCGHTLTAVPAVGEEGTSSYIGPRLILFGGATALEGNSGGTGTPTSAGSAGIRLAGATADVHCYDVLSNKWSRLTPYGEPPSPRAAHVATAVGTMVVIQGGIGPAGLSAEDLHVLDLTQQRPRWHRVVVQGPGPGPRYGHVMALVGQRYLMAIGGNDGKRPLADVWALDTAAKPYEWRKLEPEGEGPPPCMYATASARSDGLLLLCGGRDANSVPLASAYGLAKHRDGRWEWAIAPGVSPSARYQHAAVFVNARLHVSGGALGGGRMVEDSSSVAVLDTAAGVWCDTKSVVTSPRTGRYSADAAGGDASVELTRRCRHAAAAVGDLIFIYGGLRGGVLLDDLLVAEDLAAAETTSAASHAAAAAAATNTPPGRSPGRYGFSDERTGELPESAPDAVVLGSPVAPPVNGDMYTDISTENAMVPGIRRTSKGVEYLVEASAAEAEAISATLAAAKARQVNGEVELPDRDRGAEATPSGKPSLSLIKPDSAVPNSVIPAGVRLHHRAVVVAAETGGALGGMVRQLSIDQFENEGRRVSYGTPESATAARKLLDRQMSINSVPKKVVAHLLKPRGWKPPVRRQFFLDCNEIADLCDSAERIFSSEPTVLQLKAPIKIFGDLHGQFGDLMRLFDEYGSPSTAGDISYIDYLFLGDYVDRGQHSLETITLLLALKVEYQHNVHLIRGNHEAADINALFGFRIECIERMGERDGIWVWHRINRLFNWLPLAALIEKKIICMHGGIGRSINHVEQIENIQRPITMEAGSIVLMDLLWSDPTENDSVEGLRPNARGPGLVTFGPDRVMEFCNNNDLQLIVRAHECVMDGFERFAQGHLITLFSATNYCGTANNAGAILVLGRDLVVVPKLIHPLPPAITSPETSPERHIEDTWMQELNVNRPPTPTRGRPQNPNDRGSLAWI
B2: OCTOPUS (protein, UniProt Q9SS80 1-685)
chain: MNPATDPVSAAAAALAPPPQPPQPHRLSTSCNRHPEERFTGFCPSCLCERLSVLDQTNNGGSSSSSKKPPTISAAALKALFKPSGNNGVGGVNTNGNGRVKPGFFPELRRTKSFSASKNNEGFSGVFEPQRRSCDVRLRSSLWNLFSQDEQRNLPSNVTGGEIDVEPRKSSVAEPVLEVNDEGEAESDDEELEEEEEEDYVEAGDFEILNDSGELMREKSDEIVEVREEIEEAVKPTKGLSEEELKPIKDYIDLDSQTKKPSVRRSFWSAASVFSKKLQKWRQNQKMKKRRNGGDHRPGSARLPVEKPIGRQLRDTQSEIADYGYGRRSCDTDPRFSLDAGRFSLDAGRFSVDIGRISLDDPRYSFDEPRASWDGSLIGRTMFPPAARAPPPPSMLSVVEDAPPPVHRHVTRADMQFPVEEPAPPPPVVNQTNGVSDPVIIPGGSIQTRDYYTDSSSRRRKSLDRSSSSMRKTAAAVVADMDEPKLSVSSAISIDAYSGSLRDNNNYAVETADNGSFREPAMMIGDRKVNSNDNNKKSRRWGKWSILGLIYRKSVNKYEEEEEEEEDRYRRLNGGMVERSLSESWPELRNGGGGGGGPRMVRSNSNVSWRSSGGGSARKVNGLDRRNKSSRYSPKNGENGMLKFYLPHMKASRRMSGTGGAGGGGGGGWANSHGHSIARSVMRLY
B3: BSL2 (protein, UniProt Q9SJF0 1-1018)
chain: MDEDSSMVADNDQDREFQSLDGGQSPSPMERETPQQMNDQSPPPEGGSVPTPPPSDPNPATSQQQAAAVVGQEQQPALVVGPRCAPTYSVVDAMMDKKEDGPGPRCGHTLTAVPAVGDEGTPGYIGPRLVLFGGATALEGNSGGTGTPTSAGSAGIRLAGATADVHCYDVLSNKWTRLTPFGEPPTPRAAHVATAVGTMVVIQGGIGPAGLSAEDLHVLDLTQQRPRWHRVVVQGPGPGPRYGHVMALVGQRYLMAIGGNDGKRPLADVWALDTAAKPYEWRKLEPEGEGPPPCMYATASARSDGLLLLCGGRDANSVPLASAYGLAKHRDGRWEWAIAPGVSPSSRYQHAAVFVNARLHVSGGALGGGRMVEDSSSVAVLDTAAGVWCDTKSVVTSPRTGRYSADAAGGDASVELTRRCRHAAAAVGDLIFIYGGLRGGVLLDDLLVAEDLAAAETTYAASHAAAAAATNSPPGRLPGRYGFSDERNRELSESAADGAVVLGSPVAPPVNGDMHTDISPENALLPGTRRTNKGVEYLVEASAAEAEAISATLAAAKARQVNGEVELPDRDCGAEATPSGKPTFSLIKPDSMGSMSVTPAGIRLHHRAVVVAAETGGALGGMVRQLSIDQFENEGRRVSYGTPESATAARKLLDRQMSINSVPKKVIAHLLKPRGWKPPVRRQFFLDCNEIADLCDSAERIFASEPTVLQLKAPIKIFGDLHGQFGDLMRLFDEYGSPSTAGDISYIDYLFLGDYVDRGQHSLETISLLLALKVEYQHNVHLIRGNHEAADINALFGFRIECIERMGERDGIWVWHRINRLFNWLPLAASIEKKIICMHGGIGRSINHVEQIENIQRPITMEAGSIVLMDLLWSDPTENDSVEGLRPNARGPGLVTFGPDRVMEFCNNNDLQLIVRAHECVMDGFERFAQGHLITLFSATNYCGTANNAGAILVLGRDLVVVPKLIHPLPPALSSPETSPERHIEDTWMQELNANRPATPTRGRPQNSNDRGGSLAWM
B4: YDA (enzyme, UniProt Q9CAD5 1-883)
chain: MPWWSKSKDEKKKTNKESIIDAFNRKLGFASEDRSSGRSRKSRRRRDEIVSERGAISRLPSRSPSPSTRVSRCQSFAERSPAVPLPRPIVRPHVTSTDSGMNGSQRPGLDANLKPSWLPLPKPHGATSIPDNTGAEPDFATASVSSGSSVGDIPSDSLLSPLASDCENGNRTPVNISSRDQSMHSNKNSAEMFKPVPNKNRILSASPRRRPLGTHVKNLQIPQRDLVLCSAPDSLLSSPSRSPMRSFIPDQVSNHGLLISKPYSDVSLLGSGQCSSPGSGYNSGNNSIGGDMATQLFWPQSRCSPECSPVPSPRMTSPGPSSRIQSGAVTPLHPRAGGSTTGSPTRRLDDNRQQSHRLPLPPLLISNTCPFSPTYSAATSPSVPRSPARAEATVSPGSRWKKGRLLGMGSFGHVYLGFNSESGEMCAMKEVTLCSDDPKSRESAQQLGQEISVLSRLRHQNIVQYYGSETVDDKLYIYLEYVSGGSIYKLLQEYGQFGENAIRNYTQQILSGLAYLHAKNTVHRDIKGANILVDPHGRVKVADFGMAKHITAQSGPLSFKGSPYWMAPEVIKNSNGSNLAVDIWSLGCTVLEMATTKPPWSQYEGVPAMFKIGNSKELPDIPDHLSEEGKDFVRKCLQRNPANRPTAAQLLDHAFVRNVMPMERPIVSGEPAEAMNVASSTMRSLDIGHARSLPCLDSEDATNYQQKGLKHGSGFSISQSPRNMSCPISPVGSPIFHSHSPHISGRRSPSPISSPHALSGSSTPLTGCGGAIPFHHQRQTTVNFLHEGIGSSRSPGSGGNFYTNSFFQEPSRQQDRSRSSPRTPPHVFWDNNGSIQPGYNWNKDNQPVLSDHVSQQLLSEHLKLKSLDLRPGFSTPGSTNRGP
B5: ARF2 (protein, UniProt Q94JM3 1-859)
chain: MASSEVSMKGNRGGDNFSSSGFSDPKETRNVSVAGEGQKSNSTRSAAAERALDPEAALYRELWHACAGPLVTVPRQDDRVFYFPQGHIEQVEASTNQAAEQQMPLYDLPSKLLCRVINVDLKAEADTDEVYAQITLLPEANQDENAIEKEAPLPPPPRFQVHSFCKTLTASDTSTHGGFSVLRRHADECLPPLDMSRQPPTQELVAKDLHANEWRFRHIFRGQPRRHLLQSGWSVFVSSKRLVAGDAFIFLRGENGELRVGVRRAMRQQGNVPSSVISSHSMHLGVLATAWHAISTGTMFTVYYKPRTSPSEFIVPFDQYMESVKNNYSIGMRFKMRFEGEEAPEQRFTGTIVGIEESDPTRWPKSKWRSLKVRWDETSSIPRPDRVSPWKVEPALAPPALSPVPMPRPKRPRSNIAPSSPDSSMLTREGTTKANMDPLPASGLSRVLQGQEYSTLRTKHTESVECDAPENSVVWQSSADDDKVDVVSGSRRYGSENWMSSARHEPTYTDLLSGFGTNIDPSHGQRIPFYDHSSSPSMPAKRILSDSEGKFDYLANQWQMIHSGLSLKLHESPKVPAATDASLQGRCNVKYSEYPVLNGLSTENAGGNWPIRPRALNYYEEVVNAQAQAQAREQVTKQPFTIQEETAKSREGNCRLFGIPLTNNMNGTDSTMSQRNNLNDAAGLTQIASPKVQDLSDQSKGSKSTNDHREQGRPFQTNNPHPKDAQTKTNSSRSCTKVHKQGIALGRSVDLSKFQNYEELVAELDRLFEFNGELMAPKKDWLIVYTDEENDMMLVGDDPWQEFCCMVRKIFIYTKEEVRKMNPGTLSCRSEEEAVVGEGSDAKDAKSASNPSLSSAGNS
B6: auxin transporter PIN3 (protein, UniProt Q9S7Z8 1-640)
chain: MISWHDLYTVLTAVIPLYVAMILAYGSVRWWKIFSPDQCSGINRFVAIFAVPLLSFHFISTNNPYAMNLRFIAADTLQKIIMLSLLVLWANFTRSGSLEWSITIFSLSTLPNTLVMGIPLLIAMYGEYSGSLMVQIVVLQCIIWYTLLLFLFEFRGAKMLIMEQFPETAASIVSFKVESDVVSLDGHDFLETDAEIGDDGKLHVTVRKSNASRRSFCGPNMTPRPSNLTGAEIYSLSTTPRGSNFNHSDFYNMMGFPGGRLSNFGPADMYSVQSSRGPTPRPSNFEENCAMASSPRFGYYPGGGAGSYPAPNPEFSSTTTSTANKSVNKNPKDVNTNQQTTLPTGGKSNSHDAKELHMFVWSSNGSPVSDRAGLNVFGGAPDNDQGGRSDQGAKEIRMLVPDQSHNGETKAVAHPASGDFGGEQQFSFAGKEEEAERPKDAENGLNKLAPNSTAALQSKTGLGGAEASQRKNMPPASVMTRLILIMVWRKLIRNPNTYSSLIGLIWALVAFRWHVAMPKIIQQSISILSDAGLGMAMFSLGLFMALQPKLIACGNSVATFAMAVRFLTGPAVMAVAAIAIGLRGDLLRVAIVQAALPQGIVPFVFAKEYNVHPAILSTGVIFGMLIALPITLVYYILLGL

What follows are binders tested against T1, BIN2-YFP-TbID (Arabidopsis) (assay: proximity labelling).

binding | Binder
binds | B2
binds | B3
binds | B4
binds | B5
binds | B6

Binder | binding
B1 | binds
